# Test results published in the supplement of paper PMC8728848.
# Some of the results follow.
# B1: SabA (Helicobacter pylori) (protein)
# chain: MGSSHHHHHHSSGLVPRGSHMENLYFQGEDNGFFVSAGYQIGEAVQMVKNTGELKNLNEKYEQLSQYLNQVASLKQSIQNANNIELVNSSLNYLKSFTNNNYNSTTQSPIFNAVQAVITSVLGFWSLYAGNYFTFFVGKKVGDSGQPASVQGNPPFKTIIENCSGIENCAMDQTTYDKMKKLAEDLQAAQTNSATKGNNLCALSGCAATDSTSNPPNSTVSNALNLAQQLMDLIANTKTAMMWKNIVISGVSNTSGAITSTNYPTQYAVFNNIKAMIPILQQAVTLSQSNHTLSASLQAQATGSQTNPKFAKDIYTFAQNQKQVISYAQDIFNLFNSIPAEQYKYLEKAYLKIPNAGSTPTNPYRQVVNLNQEVQTIKNNVSYYGNRVDAALSVARDVYNLKSNQAEIVTAYNDAKTLSEEISKLPHNQVNTKDIVTLPYDKNAPAAGQSNYQINPEQQSNLNQALAAMSNNPFKKVGMISSQNNNGA
# Tests used:
# Assay in all cases: glycan array binding signal (z-score within array); higher = stronger binding
# Settings in all cases: glycan notation: IUPAC condensed, linker removed
# [1] = target: Gal(b1-4)GlcNAc(b1-3)Gal(b1-4)GlcNAc(b1-3)[Gal(b1-4)GlcNAc(b1-3)Gal(b1-4)GlcNAc(b1-6)]GalNAc
# Summary of the method: (§1)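 From the Consortium for Functional Glycomics database, 3228 arrays were curated, keeping only those whose protein sequence was available. Binding is given as a within-array Z-score averaged across arrays sharing a protein sequence and across linkers. Negative Z-scores can be read as non-binding.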
# [2] = target: Gal(b1-4)GlcNAc(b1-3)Gal(b1-4)GlcNAc(b1-6)[Gal(b1-3)]GalNAc
# Summary of the method: as §1
# [3] = target: Gal(b1-4)GlcNAc(b1-3)Gal(b1-4)[Fuc(a1-3)]GlcNAc(b1-3)Gal(b1-4)[Fuc(a1-3)]GlcNAc
# Summary of the method: as §1
# [4] = target: Gal(b1-4)GlcNAc(b1-3)GalNAc
# Summary of the method: as §1
# [5] = target: Gal(b1-4)GlcNAc(b1-3)[Fuc(a1-3)GlcNAc(b1-6)]Gal(b1-4)Glc
# Summary of the method: as §1
# [6] = target: Gal(b1-4)GlcNAc(b1-3)[Gal(b1-4)GlcNAc(b1-6)]Gal(b1-4)GlcNAc
# Summary of the method: as §1
# [7] = target: Gal(b1-4)GlcNAc(b1-3)[GlcNAc(b1-6)]Gal(b1-4)GlcNAc
# Summary of the method: as §1
# [8] = target: Gal(b1-4)GlcNAc(b1-6)Gal(b1-4)GlcNAc
# Summary of the method: as §1
# [9] = target: Gal(b1-4)GlcNAc(b1-6)GalNAc
# Summary of the method: as §1
# [10] = target: Gal(b1-4)GlcNAc(b1-6)[Gal(b1-3)]GalNAc
# Summary of the method: as §1
# [11] = target: Gal(b1-4)GlcNAc(b1-6)[Gal(b1-4)GlcNAc(b1-3)]GalNAc
# Summary of the method: as §1
# [12] = target: Gal(b1-4)GlcNAc6P
# Summary of the method: as §1
# [13] = target: Gal(b1-6)Gal
# Summary of the method: as §1
# [14] = target: Gal3S(b1-3)GalNAc
# Summary of the method: as §1
# [15] = target: Gal3S(b1-3)GlcNAc
# Summary of the method: as §1
# [16] = target: Gal3S(b1-3)[Fuc(a1-4)]GlcNAc
# Summary of the method: as §1
# [17] = target: Gal3S(b1-4)Glc
# Summary of the method: as §1
# [18] = target: Gal3S(b1-4)Glc6S
# Summary of the method: as §1
# [19] = target: Gal3S(b1-4)GlcNAc
# Summary of the method: as §1
# [20] = target: Gal3S(b1-4)[Fuc(a1-3)]Glc6S
# Summary of the method: as §1
# [21] = target: Gal3S(b1-4)[Fuc(a1-3)]GlcNAc
# Summary of the method: as §1
# [22] = target: Gal3S(b1-4)[Fuc(a1-3)]GlcNAc6S
# Summary of the method: as §1
# [23] = target: Gal3S4S(b1-4)GlcNAc
# Summary of the method: as §1
# [24] = target: Gal3S6S(b1-4)GlcNAc
# Summary of the method: as §1
# [25] = target: Gal3S6S(b1-4)GlcNAc6S
# Summary of the method: as §1
# [26] = target: Gal4S(b1-4)GlcNAc
# Summary of the method: as §1
# [27] = target: Gal4S6S(b1-4)GlcNAc
# Summary of the method: as §1
# [28] = target: Gal6P(b1-4)GlcNAc
# Summary of the method: as §1
# [29] = target: Gal6S(b1-3)GlcNAc
# Summary of the method: as §1
# [30] = target: Gal6S(b1-3)GlcNAc6S
# Summary of the method: as §1
# [31] = target: Gal6S(b1-4)Glc
# Summary of the method: as §1
# [32] = target: Gal6S(b1-4)Glc6S
# Summary of the method: as §1
# [33] = target: Gal6S(b1-4)GlcNAc
# Summary of the method: as §1
# [34] = target: Gal6S(b1-4)GlcNAc6S
# Summary of the method: as §1
# [35] = target: GalNAc(a1-3)Gal
# Summary of the method: as §1
# [36] = target: GalNAc(a1-3)GalNAc
# Summary of the method: as §1
# [37] = target: GalNAc(a1-3)GalNAc(b1-3)Gal(a1-4)Gal(b1-4)Glc
# Summary of the method: as §1
# [38] = target: GalNAc(a1-3)GalNAc(b1-3)Gal(a1-4)Gal(b1-4)GlcNAc
# Summary of the method: as §1
# [39] = target: GalNAc(b1-3)Gal
# Summary of the method: as §1
# [40] = target: GalNAc(b1-3)Gal(a1-4)Gal(b1-4)GlcNAc
# Summary of the method: as §1
# [41] = target: GalNAc(b1-3)Gal(a1-4)Gal(b1-4)GlcNAc(b1-3)Gal(b1-4)Glc
# Summary of the method: as §1
# [42] = target: GalNAc(b1-3)Gal(a1-6)Gal(b1-4)Glc
# Summary of the method: as §1
# [43] = target: GalNAc(b1-3)GalNAc
# Summary of the method: as §1
# [44] = target: GalNAc(b1-3)GlcNAc
# Summary of the method: as §1
# [45] = target: GalNAc(b1-4)Gal(b1-4)Glc
# Summary of the method: as §1
# [46] = target: GalNAc(b1-4)GlcNAc
# Summary of the method: as §1
# [47] = target: GalNAc(b1-4)GlcNAc(b1-2)Man
# Summary of the method: as §1
# [48] = target: GalNAc(b1-4)GlcNAc(b1-2)Man(a1-3)[GalNAc(b1-4)GlcNAc(b1-2)Man(a1-6)]Man(b1-4)GlcNAc(b1-4)GlcNAc
# Summary of the method: as §1
# [49] = target: GalNAc(b1-4)GlcNAc(b1-3)GalNAc(b1-4)GlcNAc
# Summary of the method: as §1
# [50] = target: GalNAc(b1-4)GlcNAc6S
# Summary of the method: as §1
# [51] = target: GalNAc(b1-6)GalNAc
# Summary of the method: as §1
# [52] = target: GalNAc3S(b1-4)GlcNAc
# Summary of the method: as §1
# [53] = target: GalNAc3S(b1-4)GlcNAc3S
# Summary of the method: as §1
# [54] = target: GalNAc3S(b1-4)[Fuc(a1-3)]GlcNAc
# Summary of the method: as §1
# [55] = target: GalNAc4S6S(b1-4)GlcNAc
# Summary of the method: as §1
# [56] = target: GalNAc6S(b1-4)GlcNAc
# Summary of the method: as §1
# [57] = target: Glc(a1-4)Glc
# Summary of the method: as §1
# [58] = target: Glc(a1-4)Glc(a1-4)Glc(a1-4)Glc
# Summary of the method: as §1
# [59] = target: Glc(a1-6)Glc(a1-6)Glc
# Summary of the method: as §1
# [60] = target: Glc(a1-6)Glc(a1-6)Glc(a1-6)Glc
# Summary of the method: as §1
# [61] = target: Glc(b1-4)Glc
# Summary of the method: as §1
# [62] = target: Glc(b1-6)Glc
# Summary of the method: as §1
# [63] = target: GlcA(b1-3)Gal
# Summary of the method: as §1
# [64] = target: GlcA(b1-3)GlcNAc
# Summary of the method: as §1
# [65] = target: GlcA(b1-6)Gal
# Summary of the method: as §1
# [66] = target: GlcA3S(b1-3)Gal(b1-4)GlcNAc(b1-2)Man
# Summary of the method: as §1
# [67] = target: GlcA3S(b1-3)Gal(b1-4)GlcNAc(b1-3)Gal(b1-4)Glc
# Summary of the method: as §1
# [68] = target: GlcNAc(a1-3)Gal(b1-4)GlcNAc
# Summary of the method: as §1
# [69] = target: GlcNAc(a1-4)Gal(b1-3)GlcNAc
# Summary of the method: as §1
# [70] = target: GlcNAc(a1-4)Gal(b1-4)GalNAc
# Summary of the method: as §1
# [71] = target: GlcNAc(a1-4)Gal(b1-4)GlcNAc
# Summary of the method: as §1
# [72] = target: GlcNAc(a1-4)Gal(b1-4)GlcNAc(b1-3)Gal(b1-4)Glc
# Summary of the method: as §1
# [73] = target: GlcNAc(a1-4)Gal(b1-4)GlcNAc(b1-3)Gal(b1-4)GlcNAc
# Summary of the method: as §1
# [74] = target: GlcNAc(a1-4)Gal(b1-4)GlcNAc(b1-3)Gal(b1-4)GlcNAc(b1-3)Gal(b1-4)GlcNAc
# Summary of the method: as §1
# [75] = target: GlcNAc(a1-4)Gal(b1-4)GlcNAc(b1-3)Gal(b1-4)[Fuc(a1-3)]GlcNAc(b1-3)Gal(b1-4)[Fuc(a1-3)]GlcNAc
# Summary of the method: as §1
binder,measurement,setting,value
B1,glycan array binding signal (z-score),[1],-0.093
same,glycan array binding signal (z-score),[2],-0.494
same,glycan array binding signal (z-score),[3],-0.766
same,glycan array binding signal (z-score),[4],-0.706
same,glycan array binding signal (z-score),[5],-0.526
same,glycan array binding signal (z-score),[6],0.403
same,glycan array binding signal (z-score),[7],-0.202
same,glycan array binding signal (z-score),[8],-0.42
same,glycan array binding signal (z-score),[9],0.556
same,glycan array binding signal (z-score),[10],-0.47
same,glycan array binding signal (z-score),[11],0.063
same,glycan array binding signal (z-score),[12],-0.913
same,glycan array binding signal (z-score),[13],0.44
same,glycan array binding signal (z-score),[14],-0.071
same,glycan array binding signal (z-score),[15],-0.212
same,glycan array binding signal (z-score),[16],0.112
same,glycan array binding signal (z-score),[17],-0.46
same,glycan array binding signal (z-score),[18],0.056
same,glycan array binding signal (z-score),[19],0.24
same,glycan array binding signal (z-score),[20],1.23
same,glycan array binding signal (z-score),[21],0.298
same,glycan array binding signal (z-score),[22],0.398
same,glycan array binding signal (z-score),[23],0.971
same,glycan array binding signal (z-score),[24],0.42
same,glycan array binding signal (z-score),[25],0.24
same,glycan array binding signal (z-score),[26],-0.09
same,glycan array binding signal (z-score),[27],0.19
same,glycan array binding signal (z-score),[28],-0.861
same,glycan array binding signal (z-score),[29],-0.499
same,glycan array binding signal (z-score),[30],0.018
same,glycan array binding signal (z-score),[31],0.222
same,glycan array binding signal (z-score),[32],0.154
same,glycan array binding signal (z-score),[33],-0.205
same,glycan array binding signal (z-score),[34],-0.001
same,glycan array binding signal (z-score),[35],1.43
same,glycan array binding signal (z-score),[36],0.067
same,glycan array binding signal (z-score),[37],0.228
same,glycan array binding signal (z-score),[38],-0.437
same,glycan array binding signal (z-score),[39],-0.002
same,glycan array binding signal (z-score),[40],0.328
same,glycan array binding signal (z-score),[41],-0.399
same,glycan array binding signal (z-score),[42],-0.633
same,glycan array binding signal (z-score),[43],-0.564
same,glycan array binding signal (z-score),[44],-0.566
same,glycan array binding signal (z-score),[45],1.6
same,glycan array binding signal (z-score),[46],0.676
same,glycan array binding signal (z-score),[47],-0.816
same,glycan array binding signal (z-score),[48],2.98
same,glycan array binding signal (z-score),[49],-0.856
same,glycan array binding signal (z-score),[50],-0.616
same,glycan array binding signal (z-score),[51],-0.5
same,glycan array binding signal (z-score),[52],-0.329
same,glycan array binding signal (z-score),[53],-0.673
same,glycan array binding signal (z-score),[54],-0.298
same,glycan array binding signal (z-score),[55],-0.594
same,glycan array binding signal (z-score),[56],0.834
same,glycan array binding signal (z-score),[57],-0.198
same,glycan array binding signal (z-score),[58],-0.046
same,glycan array binding signal (z-score),[59],0.393
same,glycan array binding signal (z-score),[60],1.22
same,glycan array binding signal (z-score),[61],-0.155
same,glycan array binding signal (z-score),[62],-0.052
same,glycan array binding signal (z-score),[63],-0.726
same,glycan array binding signal (z-score),[64],0.992
same,glycan array binding signal (z-score),[65],-0.216
same,glycan array binding signal (z-score),[66],-0.867
same,glycan array binding signal (z-score),[67],-0.243
same,glycan array binding signal (z-score),[68],-0.423
same,glycan array binding signal (z-score),[69],-0.175
same,glycan array binding signal (z-score),[70],-0.451
same,glycan array binding signal (z-score),[71],-0.254
same,glycan array binding signal (z-score),[72],-0.716
same,glycan array binding signal (z-score),[73],-0.512
same,glycan array binding signal (z-score),[74],-0.845
same,glycan array binding signal (z-score),[75],1.45

# As a short view, some entries already given:
binder,measurement,setting,value
B1,glycan array binding signal (z-score),[27],0.19
same,glycan array binding signal (z-score),[28],-0.861
same,glycan array binding signal (z-score),[29],-0.499
same,glycan array binding signal (z-score),[30],0.018
same,glycan array binding signal (z-score),[31],0.222
same,glycan array binding signal (z-score),[32],0.154
same,glycan array binding signal (z-score),[33],-0.205
same,glycan array binding signal (z-score),[34],-0.001
same,glycan array binding signal (z-score),[35],1.43
same,glycan array binding signal (z-score),[36],0.067
same,glycan array binding signal (z-score),[37],0.228
same,glycan array binding signal (z-score),[38],-0.437
same,glycan array binding signal (z-score),[39],-0.002
same,glycan array binding signal (z-score),[40],0.328
same,glycan array binding signal (z-score),[41],-0.399
same,glycan array binding signal (z-score),[42],-0.633
same,glycan array binding signal (z-score),[43],-0.564
same,glycan array binding signal (z-score),[44],-0.566
